Assay results as given in PubChem BioAssay AID2685 (National Center for Advancing Translational Sciences (NCATS), 2010).
Hit rate of the full screen: of about 320,000 compounds, about 2,100 (0.66%) were called active. Inconclusive results, whose numbers are uncertain, are shown with a selection of clear calls. The call rests on the fitted dose curve; in most records, active means well fitted inhibition curve with a large enough effect in the signal ratio, with a control signal flat (not every such curve was filed as active); inconclusive means small, poorly fitted or top-dose-only effect, or effect the other way, or a change in a side signal; inactive means flat fitted curve, though single readings scatter; the % refers to the signal ratio. Where the call is inconclusive, the potency comes from a doubtful curve fit.

Assay: qHTS Assay for Lipid Storage Modulators in Drosophila S3 Cells
Details: BODIPY lipid droplet fluorescence, 18-24 h, cells fed with added oleic acid; lipid storage change, negative = inhibition: at 46.1 µM (top of the series) unless noted
Procedure, shortened: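 Drosophila S3 cells got compounds at several concentrations plus oleic acid (400 uM solution). Laser-scanning cytometry with 488 nm excitation read lipid droplets at 500-530 nm and cells at 575-640 nm. Percent activity was relative to 20 uM Triacsin C.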
On the % scale 0 is the no-effect control and ±100 the full control effect; potency means the concentration at half of the fitted maximal effect.

SMILES	lipid storage change, negative = inhibition	Potency
COc1cc(=O)[nH]c(SCC(=O)Nc2ccc3ccccc3c2)n1	inconclusive: -43.3%	
O=C(c1ccc(Cl)c(Cl)c1)N1CCC(=O)N(C(COCc2cccc(Cl)c2)Cc2ccccc2)CC1 (stereo not given)	inconclusive: 27.4%	
Cc1ccc(C)c(S(=O)(=O)N2CCN(C(=O)CSc3ccccc3F)CC2)c1	inconclusive: -36.6% [at 0.00295 µM]	
CSc1ccc(/C=C2\C(=N)N3N=C(CC(=O)N4CCCCC4)SC3=NC2=O)cc1	inconclusive: 116%	
Cc1ccc(NC(=O)c2cc(-c3cccc(O)c3)on2)cc1C		inconclusive: 29.1 µM [cytotoxic, partial curve, poor fit]
Cc1ccnc(NC(=O)CNC(=O)c2ccccc2Br)c1	inconclusive: -2.06%	
CCCCC(C(=O)NC(C)(C)C)N(Cc1ccccc1)C(=O)c1snc(C(N)=O)c1N (stereo not given)	inconclusive: -67.5%	
C/C=C/Cn1c(Br)nc2c1c(=O)[nH]c(=O)n2C	inconclusive: 49.2%	
Cc1onc(-c2c(Cl)cccc2Cl)c1C(=O)Nn1cnnc1		inconclusive: 0.116 µM [activator, full curve, poor fit]
Cc1csc(SCC(=O)NCCc2ccc(Cl)cc2Cl)n1	inconclusive: -31.1%	
COc1ccc(-c2nc(CS(=O)(=O)CC(=O)NCc3cccc(OC)c3OC)c(C)o2)cc1	inactive: 1.65%	
CCCOc1ccc(C(C)=O)cc1CC(C(=O)OCC)C(=O)OCC	inactive: 0.302%	
O=C(CSC1=NCCS1)Nc1cccc(F)c1	inconclusive: 12.8%	
Cc1nn(CCCC(=O)NCCc2ccccc2)c(=O)c2nccn12		inconclusive: 20.6 µM [activator, partial curve, poor fit]
COC(=O)c1ccccc1NC(=O)C1CCC(=O)N1S(=O)(=O)c1ccc(C)cc1 (stereo not given)		inconclusive: 1.46 µM [falling, full curve, poor fit]
OC(COCc1ccccc1)CN1CCN(c2ccccc2)CC1 (stereo not given)	inconclusive: -4.94%	
COc1ccc(CCNC(=O)c2ccc3c(c2)N(Cc2ccc(F)cc2)CCS3)c(OC)c1	inconclusive: -51.9%	
CN(c1ccccc1)S(=O)(=O)c1cccc(C(=O)NCc2ccccc2CN2CCCC2)c1		inconclusive: 6.51 µM [falling, single point]
O=C(O)c1cccc(Sc2ccc(Br)cc2C(=O)O)c1		inconclusive: 0.164 µM [falling, full curve, poor fit]
COc1ccc2c3n([n+]([O-])c2c1)CCN=C3c1ccc(C)cc1		inconclusive: 11.6 µM [activator, partial curve, poor fit]
COc1cccc(N=C2SC(C(=O)Nc3ccccc3F)CC(=O)N2C)c1 (stereo not given)	inconclusive: 38.2%	
CC(C)CCn1cnc2c(c1=O)c1nc3ccccc3nc1n2Cc1ccc2c(c1)OCO2		inconclusive: 1.84 µM [activator, full curve]
CCOC(=O)c1sc(NC(=O)CSc2ncn(-c3ccccc3)n2)nc1C		inconclusive: 1.16 µM [activator, partial curve]
COc1ccc(CCC(=O)OCC(=O)Nc2ccc3[nH]c(=O)[nH]c3c2)cc1	inconclusive: 35.3% [at 0.0737 µM]	
NNC(=O)C1CCCn2c1nc1sc3c(c1c2=O)CCCC3 (stereo not given)		inconclusive: 6.51 µM [activator, single point]

Laid out differently: 5 of the compounds above.

| SMILES | lipid storage change, negative = inhibition | Potency |
| --- | --- | --- |
| Cc1ccc(C)c(S(=O)(=O)N2CCN(C(=O)CSc3ccccc3F)CC2)c1 | inconclusive: -36.6% [at 0.00295 µM] |  |
| CSc1ccc(/C=C2\C(=N)N3N=C(CC(=O)N4CCCCC4)SC3=NC2=O)cc1 | inconclusive: 116% |  |
| Cc1ccnc(NC(=O)CNC(=O)c2ccccc2Br)c1 | inconclusive: -2.06% |  |
| Cc1onc(-c2c(Cl)cccc2Cl)c1C(=O)Nn1cnnc1 |  | inconclusive: 0.116 µM [activator, full curve, poor fit] |
| CCCOc1ccc(C(C)=O)cc1CC(C(=O)OCC)C(=O)OCC | inactive: 0.302% |  |

Remaining list, next part

SMILES	lipid storage change, negative = inhibition	Potency
O=C(COC(=O)c1ccc([N+](=O)[O-])o1)Nc1nc2ccccc2s1	inactive: -1.77%	
CN(C)c1ccc(S(=O)(=O)NCC(=O)NCC2CCCCC2)cc1[N+](=O)[O-]	inconclusive: -2.31%	
O=C1CC(N2CCN(c3ccccc3)CC2)C(=O)N1c1cccc(Br)c1 (stereo not given)		inconclusive: 29.1 µM [activator, single point]
O=C(O)c1ccccc1C(=O)NCCc1c(C(=O)O)[nH]c2ccc(F)cc12	inconclusive: -35.9%	
O=C(O)CNS(=O)(=O)c1ccc(-c2ccccc2)cc1		inconclusive: 0.366 µM [falling, partial curve, poor fit]
CC(C)c1ccc(C(=O)NNC(=O)c2n[nH]c(=O)c3ccccc23)cc1		inconclusive: 0.0052 µM [falling, full curve, poor fit]
Cc1ccc(Cc2cnc(NC(=O)C3=NCCN3)s2)cc1	inconclusive: -23.8% [at 9.22 µM]	
COc1ccc(OC)c(NC(=O)Cc2csc(NC(=O)Nc3ccccc3OC)n2)c1		inconclusive: 0.58 µM [activator, full curve]
Cc1cc(N2C(=O)C(O)=C(C(=O)c3cc4ccccc4o3)C2c2ccc([N+](=O)[O-])cc2)no1 (stereo not given)	inconclusive: 334%	
CCN(C(=O)c1cc2c(=O)n3ccccc3nc2s1)C1CCCCC1		inconclusive: 6.51 µM [falling, partial curve]
Clc1ccc(-n2cc(COCc3ccccc3)nn2)cc1		inconclusive: 23.1 µM [falling, single point]
CN(C)c1ccc(/C=C/c2cc[n+]([O-])cc2)cc1	inconclusive: -8.14%	
COc1ccc(NC(=O)c2ccc(-c3ccc(OC)cc3)s2)cc1	inconclusive: -54.6%	
O=C(NC1(C(F)(F)F)N=C(c2ccccc2)NC1=O)c1ccccc1F (stereo not given)	inconclusive: 8.08%	
CC(C)(C)c1ccc(S(=O)(=O)Nc2cccc(C3OCCCO3)c2)cc1		inconclusive: 0.461 µM [falling, full curve, poor fit]
O=C(O)c1cc(S(=O)(=O)N2CCCCC2)sc1Cl	inconclusive: 6.83%	
COc1ccc(/C=C(\C#N)C(=O)Nc2cccc(C)n2)cc1		inconclusive: 6.51 µM [falling, partial curve, poor fit]
CCc1ccc(C2NC(c3ccc(CC)cc3)C([N+](=O)[O-])C(C)(C)C2[N+](=O)[O-])cc1 (stereo not given)		inconclusive: 0.366 µM [activator, partial curve, poor fit]
CCCCN(C(=O)c1cc2c(s1)CCCCC2)c1c(N)n(CC(C)C)c(=O)[nH]c1=O	inconclusive: -9.32%	
O=C(COC(=O)c1ccc(NS(=O)(=O)c2ccc(Br)s2)cc1)NC1CCCC1	inconclusive: 15.3%	
CCn1c(N)c(C(=O)NC)sc1=S	inconclusive: -26.5%	
COc1ccc(S(=O)(=O)N2CCN(c3ccc(F)cc3)CC2)cc1OC	inconclusive: -0.727%	
CCCCn1c(N)c(N(CC(C)C)C(=O)CC2CCCC2)c(=O)[nH]c1=O	inconclusive	
O=C(CSc1nnc2c(n1)[nH]c1ccc(F)cc12)Nc1ccccc1F	inconclusive: -81.8%	
CSc1ncccc1C(=O)OCC(=O)NCc1ccccc1		inconclusive: 0.231 µM [activator, full curve]

SMILES	lipid storage change, negative = inhibition	Potency
O=C(CN1CCN(S(=O)(=O)c2ccc(Br)cc2)CC1)Nc1ccc2c(c1)OCCO2	inconclusive: 45.9%	
CCC1=NN(C(=O)c2ccc(Br)cc2)C(O)(c2ccc(C)cc2)C1 (stereo not given)	inconclusive: 32.9%	
CC(/C=C/c1ccccc1)NC(N)=O (stereo not given)		inconclusive: 25.9 µM [falling, partial curve, poor fit]
Cc1ccc(Nc2nnns2)cc1	inconclusive: -79.4%	
CCCCn1c(SCc2nnc(-c3ccccc3)o2)nc2c1c(=O)n(C)c(=O)n2C	inconclusive: 30.4%	
O=C(O)/C=C/c1cn(Cc2ccccc2)nc1-c1cccs1		inconclusive: 0.0052 µM [falling, full curve, poor fit]
CCOC(=O)c1cnc(SC)nc1Oc1cccc(NS(=O)(=O)c2ccccc2)c1	inconclusive: 14.9%	
N#Cc1cnn(-c2cccc(Cl)c2)c1N	inconclusive: -16.1%	
O=C(Cn1nc(Cl)nc1Cl)Nc1ccccc1	inconclusive: 30.7%	
CCCCNC(=O)/C(C#N)=C/c1cccnc1		active: 20.6 µM
CSCC[C@H](NC(=O)OC(C)(C)C)C(=O)N/N=C/c1c(C)[nH]c(=O)[nH]c1=O	inconclusive: -35.5%	
O=C(NCCNC(=O)c1ccc(Br)o1)c1ccc(Br)o1	inconclusive: -17.1%	
CCOC(=O)c1sc2ncn(CC(=O)N(CC)CC)c(=O)c2c1C	inconclusive: -13%	
Cc1ccc(C)n1CCN1CCN(CC(=O)Nc2ccc(S(N)(=O)=O)cc2)CC1	inconclusive: 11.6%	
Cc1cc(C)cc(N=C2SC(CC(=O)Nc3ccccc3)C(=O)N2CCN2CCOCC2)c1 (stereo not given)	inconclusive: 36.1%	
Cc1csc(NC(=O)CSc2nc3ccccc3s2)n1		inconclusive: 32.6 µM [falling, single point]
CC(C)COCC1CC2(CC(C)C(=O)CC2=O)C(=O)O1 (stereo not given)		inconclusive: 20.6 µM [activator, single point]
N#CCCN1CCC(NC(=O)OCc2ccccc2)CCC1=O (stereo not given)	inconclusive: 71.3%	
Cc1ccc(/C=N/NC(=O)Nc2ccccc2)o1	inconclusive: -5.9%	
O=C1CCCC(O)=C1N=Nc1c(Cl)cc(C(F)(F)F)cc1Cl		inconclusive: 29.1 µM [falling, single point]
COc1cc(C)nc(NS(=O)(=O)c2ccc(C)cc2)n1	inconclusive: -13.7%	
CSCCC(NS(=O)(=O)c1cccc(C(F)(F)F)c1)C(=O)N(C)CCOc1ccc(Cl)cc1 (stereo not given)	inconclusive: 24.3%	
CC(=O)c1c(C)[nH]c(C(=O)Nc2cc(C)ccc2C)c1C	inconclusive: 53.8% [activator]	
CCOc1cc(/C=C2\SC(=NC)N(C)C2=O)c(Br)cc1OC(C)=O		inconclusive: 29.1 µM [falling, single point]
N/C(=N\c1nc(CSc2nnnn2-c2ccccc2)cc(=O)[nH]1)Nc1ccccc1	inconclusive: 18.1%	
